Results are given in words; binding and its absence hold for the method and conditions named. Some results given as binding are weak or reduced against the parent protein; the word gives no strength.
Tests used:
[1] = molecular target: T1, human B7-H3 antigen, recombinant extracellular domain (ECD) (29-461) (human) (UniProt Q5ZPR3); experiment: ELISA, B7-H3 antigen coated at 1 µg/mL
T1 sequence (looked up): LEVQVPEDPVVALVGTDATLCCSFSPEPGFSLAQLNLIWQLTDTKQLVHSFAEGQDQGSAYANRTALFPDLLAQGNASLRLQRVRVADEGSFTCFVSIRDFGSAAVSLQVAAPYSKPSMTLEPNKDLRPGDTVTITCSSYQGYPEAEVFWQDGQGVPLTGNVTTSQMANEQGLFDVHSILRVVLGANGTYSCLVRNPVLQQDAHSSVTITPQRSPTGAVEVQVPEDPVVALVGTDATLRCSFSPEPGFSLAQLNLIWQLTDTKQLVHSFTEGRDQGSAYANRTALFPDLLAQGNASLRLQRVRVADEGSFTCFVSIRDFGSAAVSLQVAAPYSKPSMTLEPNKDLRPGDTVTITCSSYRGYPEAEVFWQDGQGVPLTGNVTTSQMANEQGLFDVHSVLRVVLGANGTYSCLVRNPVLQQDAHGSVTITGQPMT

[2] = molecular target: T1, human B7-H3 antigen, recombinant extracellular domain (ECD) (29-461) (human); experiment: ELISA, coated human B7-H3 antigen
[3] = molecular target: T1, human B7-H3 antigen, recombinant extracellular domain (ECD) (29-461) (human); experiment: summary of the foregoing ELISA and FACS results

Binder | binding [1] | binding [2] | binding [3]
B7-H3×CD3 bispecific antibody 42F7×CD3 (bispecific antibody, not shown: a dimerising Fc or GST) heavy 1: QVQLVQSGAEVKKPGSSVKVSCKASGGTRPAALINWVRQAPGQGLEWMGGIIPLFGTANYAQKFQGRVTITADESTSTAYMELSSLRSDDTAVYYCARDQVVATSGVNFGMDVWGQGTTVTVSS heavy 2: EVQLVESGGGLVQPGGSLKLSCAASGFTFNTYAMNWVRQAPGKGLEWVARIRSKYNNYATYYADSVKDRFTISRDDSKNTAYLQMNNLKTEDTAMYYCVRHGNFGTSYVSWFAYWGQGTLVTVSS light: DIQMTQEPSLTTSPGGTVTLTCRSSTGAVTTSNYANWVQEKPGQAPRGLIGGTNKRAPGTPARFSGSLIGGKAALTITGVQPEDEAIYFCALWYSNLWVFGGGTKLEIK | binds |  | 
B7-H3×CD3 bispecific antibody 43G11×CD3 (bispecific antibody, not shown: a dimerising Fc or GST) heavy 1: QVQLVQSGAEVKKPGSSVKVSCKASGGTLRPVLINWVRQAPGQGLEWMGGIIPLFGTANYAQKFQGRVTITADESTSTAYMELSSLRSDDTAVYYCARDQVVATSGVNFGMDVWGQGTTVTVSS heavy 2: EVQLVESGGGLVQPGGSLKLSCAASGFTFNTYAMNWVRQAPGKGLEWVARIRSKYNNYATYYADSVKDRFTISRDDSKNTAYLQMNNLKTEDTAMYYCVRHGNFGTSYVSWFAYWGQGTLVTVSS light: DIQMTQEPSLTTSPGGTVTLTCRSSTGAVTTSNYANWVQEKPGQAPRGLIGGTNKRAPGTPARFSGSLIGGKAALTITGVQPEDEAIYFCALWYSNLWVFGGGTKLEIK | binds |  | 
B7-H3×CD3 bispecific antibody 46H7×CD3 (bispecific antibody, not shown: a dimerising Fc or GST) heavy 1: QVQLVQSGAEVKKPGSSVKVSCKASGGTFSNYAINWVRQAPGQGLEWMGGIIPLFGTANYAQKFQGRVTITADESTSTAYMELSSLRSDDTAVYYCARDRFTPRSGVNFGMDVWGQGTTVTVSS heavy 2: EVQLVESGGGLVQPGGSLKLSCAASGFTFNTYAMNWVRQAPGKGLEWVARIRSKYNNYATYYADSVKDRFTISRDDSKNTAYLQMNNLKTEDTAMYYCVRHGNFGTSYVSWFAYWGQGTLVTVSS light: DIQMTQEPSLTTSPGGTVTLTCRSSTGAVTTSNYANWVQEKPGQAPRGLIGGTNKRAPGTPARFSGSLIGGKAALTITGVQPEDEAIYFCALWYSNLWVFGGGTKLEIK | binds |  | 
affinity-matured B7-H3 antibody 42F7 (antibody, V domains shown, Full antibody expressed in 293F cells, protein A purified; VH assembled from the framework and CDR entries) VH: QVQLVQSGAEVKKPGSSVKVSCKASGGTRPAALINWVRQAPGQGLEWMGGIIPLFGTANYAQKFQGRVTITADESTSTAYMELSSLRSDDTAVYYCARDQVVATSGVNFGMDVWGQGTTVTVSS VL: DIQMTQEPSLTTSPGGTVTLTCRSSTGAVTTSNYANWVQEKPGQAPRGLIGGTNKRAPGTPARFSGSLIGGKAALTITGVQPEDEAIYFCALWYSNLWVFGGGTKLEIK |  | binds | binds

Results, then the binder that gave them:

binding [1] | binding [2] | binding [3] | Binder
binds |  |  | B7-H3×CD3 bispecific antibody 49E1×CD3 (bispecific antibody, not shown: a dimerising Fc or GST) heavy 1: QVQLVQSGAEVKKPGSSVKVSCKASGGTFSNYAINWVRQAPGQGLEWMGGIIPVFRSVNYAQKFQGRVTITADESTSTAYMELSSLRSDDTAVYYCARDQVVATSGVNFGMDVWGQGTTVTVSS heavy 2: EVQLVESGGGLVQPGGSLKLSCAASGFTFNTYAMNWVRQAPGKGLEWVARIRSKYNNYATYYADSVKDRFTISRDDSKNTAYLQMNNLKTEDTAMYYCVRHGNFGTSYVSWFAYWGQGTLVTVSS light: DIQMTQEPSLTTSPGGTVTLTCRSSTGAVTTSNYANWVQEKPGQAPRGLIGGTNKRAPGTPARFSGSLIGGKAALTITGVQPEDEAIYFCALWYSNLWVFGGGTKLEIK
 | binds |  | affinity-matured B7-H3 antibody 48D10 (antibody, V domains shown, Full antibody expressed in 293F cells, protein A purified; VH assembled from the framework and CDR entries) VH: QVQLVQSGAEVKKPGSSVKVSCKASGGTRPAALINWVRQAPGQGLEWMGGIIPLFGTANYAQKFQGRVTITADESTSTAYMELSSLRSDDTAVYYCARDQVVATSGVNFGMDVWGQGTTVTVSS VL: DIQMTQEPSLTTSPGGTVTLTCRSSTGAVTTSNYANWVQEKPGQAPRGLIGGTNKRAPGTPARFSGSLIGGKAALTITGVQPEDEAIYFCALWYSNLWVFGGGTKLEIK
 | binds | binds | affinity-matured B7-H3 antibody 50A1 (antibody, V domains shown, Full antibody expressed in 293F cells, protein A purified; VH assembled from the framework and CDR entries) VH: QVQLVQSGAEVKKPGSSVKVSCKASGGTFSNYAINWVRQAPGQGLEWMGGIIPLFGTANYAQKFQGRVTITADESTSTAYMELSSLRSDDTAVYYCARDQVVPLSGVNFGMDVWGQGTTVTVSS VL: DIQMTQEPSLTTSPGGTVTLTCRSSTGAVTTSNYANWVQEKPGQAPRGLIGGTNKRAPGTPARFSGSLIGGKAALTITGVQPEDEAIYFCALWYSNLWVFGGGTKLEIK

From patent publication US20240343809A1 (EXCELMAB, published 2024)
